According to publication PMC4738175 (Cancer letters, 2015):

Assays:
[1] = tested on: phosphorylation of MEK1/2 and ERK1/2; assay: Western blot of phosphorylated MEK1/2 and ERK1/2 in PK03 cells; assay type: cell-based, mouse; conditions: PK03 cells, 3, 10 or 30μM, 24 hours
phosphorylation of c-RAF = assay: Western blot of phosphorylated c-RAF in PK03 cells; assay type: cell-based, mouse; conditions: PK03 cells, 3, 10 or 30μM, 24 hours
phosphorylated ERK1/2 = assay: Immunohistochemical staining of phosphorylated ERK1/2 in PK03 tumors; conditions: 10mg/kg, n = 3 mice/group, vs PK03 control

O=C(NC12CC3CC(CC(C3)C1)C2)N[C@H]1CC[C@H](Oc2ccc(C(=O)O)cc2)CC1 [t-AUCB, trans/-4-[4-(3-adamantan-1-yl-ureido)-cyclohexyloxy]-benzoic acid]
inhibition of phosphorylation of MEK1/2 and ERK1/2 [1]: but not by t-AUCB
inhibition of phosphorylation of c-RAF (phosphorylation of c-RAF): but not by sorafenib or t-AUCB
staining intensity of phosphorylated ERK1/2 (phosphorylated ERK1/2): but not t-AUCB treated tumors
